Results are given in words; binding and its absence hold for the method and conditions named. Some binding calls cover weakened binding; strength is not graded here.
Molecular target: FAK of NIH3T3 cells (mouse) (UniProt P34152)
Experiment: paxillin/FAK complex in NIH3T3 cells overexpressing FAK/25aa; no figure cited

The chains behind the UniProt entries cited, without tags or fusion partners. Residues count along the entry.
UniProt P34152, residues 2-1052: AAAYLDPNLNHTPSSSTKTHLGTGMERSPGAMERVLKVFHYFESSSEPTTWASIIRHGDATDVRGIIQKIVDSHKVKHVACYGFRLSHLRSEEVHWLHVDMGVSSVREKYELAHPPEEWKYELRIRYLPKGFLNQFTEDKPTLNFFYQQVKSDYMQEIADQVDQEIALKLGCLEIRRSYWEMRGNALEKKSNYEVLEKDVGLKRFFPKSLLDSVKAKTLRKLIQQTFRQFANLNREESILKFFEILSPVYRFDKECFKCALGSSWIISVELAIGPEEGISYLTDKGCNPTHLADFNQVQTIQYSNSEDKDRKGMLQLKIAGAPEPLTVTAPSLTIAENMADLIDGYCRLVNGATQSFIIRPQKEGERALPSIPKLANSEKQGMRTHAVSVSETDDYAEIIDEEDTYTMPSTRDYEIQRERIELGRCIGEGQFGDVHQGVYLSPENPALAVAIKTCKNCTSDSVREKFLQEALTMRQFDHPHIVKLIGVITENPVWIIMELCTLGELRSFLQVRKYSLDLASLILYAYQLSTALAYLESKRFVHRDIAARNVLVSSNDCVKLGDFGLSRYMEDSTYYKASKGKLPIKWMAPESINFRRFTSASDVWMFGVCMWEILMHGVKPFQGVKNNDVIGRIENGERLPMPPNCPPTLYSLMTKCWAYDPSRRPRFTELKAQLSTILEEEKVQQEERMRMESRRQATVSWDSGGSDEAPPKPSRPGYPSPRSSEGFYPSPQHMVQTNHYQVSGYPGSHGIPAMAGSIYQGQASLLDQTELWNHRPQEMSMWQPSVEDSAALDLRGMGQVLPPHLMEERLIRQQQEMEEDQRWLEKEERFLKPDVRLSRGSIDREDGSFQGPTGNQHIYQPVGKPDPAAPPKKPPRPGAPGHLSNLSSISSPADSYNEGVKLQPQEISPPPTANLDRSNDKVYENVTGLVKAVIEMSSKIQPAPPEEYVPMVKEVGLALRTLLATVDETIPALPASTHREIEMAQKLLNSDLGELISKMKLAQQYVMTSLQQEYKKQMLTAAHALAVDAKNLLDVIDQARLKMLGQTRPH
UniProt Q8VI36: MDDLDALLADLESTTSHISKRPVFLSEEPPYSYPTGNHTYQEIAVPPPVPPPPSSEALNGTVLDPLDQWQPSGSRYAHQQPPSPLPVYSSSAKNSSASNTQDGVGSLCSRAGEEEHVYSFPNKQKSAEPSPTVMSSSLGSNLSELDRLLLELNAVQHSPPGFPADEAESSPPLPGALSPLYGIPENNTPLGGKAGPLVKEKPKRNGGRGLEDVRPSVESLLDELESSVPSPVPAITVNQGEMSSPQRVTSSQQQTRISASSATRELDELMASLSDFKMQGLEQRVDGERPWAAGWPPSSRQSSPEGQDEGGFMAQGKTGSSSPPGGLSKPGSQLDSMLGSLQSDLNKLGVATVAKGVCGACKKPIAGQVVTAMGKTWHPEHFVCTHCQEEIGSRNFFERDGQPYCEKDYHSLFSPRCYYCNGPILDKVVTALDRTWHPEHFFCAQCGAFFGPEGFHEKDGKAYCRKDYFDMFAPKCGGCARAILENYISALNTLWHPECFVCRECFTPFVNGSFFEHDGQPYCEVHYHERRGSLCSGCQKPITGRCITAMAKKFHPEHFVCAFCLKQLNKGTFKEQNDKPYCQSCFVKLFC

Substance: paxillin (from UniProt Q8VI36 1-591)
- binding: binds
